From article PMC7819943, “Rice protein-binding microarrays: a tool to detect cis-acting elements near promoter regions in rice”
Some of the results follow.

Protein sequences, listed by entry. Tags and fused reporters are not part of them.
UniProt Q0JBA9, entry or part of it: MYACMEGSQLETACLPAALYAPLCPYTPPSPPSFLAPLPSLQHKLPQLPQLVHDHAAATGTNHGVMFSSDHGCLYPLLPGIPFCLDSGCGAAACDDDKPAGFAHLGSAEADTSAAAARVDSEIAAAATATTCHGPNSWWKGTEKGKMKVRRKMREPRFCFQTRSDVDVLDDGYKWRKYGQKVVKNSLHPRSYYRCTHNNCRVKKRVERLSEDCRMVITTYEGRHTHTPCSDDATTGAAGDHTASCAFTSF

target: OsWRKY34 (Oryza sativa, UniProt Q0JBA9 1-250); experiment: protein-binding microarray (RPBM); PBS, 2% BSA, 51.3 ng/ul salmon testes DNA, 50 uM zinc acetate, 200 nM TF, 25 C, 1 h; high values mean tight binding; conditions: protein: recombinant; tags: N-terminal polyhistidine and DsRed monomer fusion (pET32a); label: CyDye5-dUTP incorporated in the synthesized complementary strand; 3' TTTTT single-stranded linker to array surface; dsDNA, one strand shown
Summary of the method: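 Per-feature fluorescence intensity (arbitrary units), read on an Axon 4000B scanner, is the binding signal. Transcription factors carrying an N-terminal polyhistidine tag and DsRed fusion were expressed in E. coli BL21-CodonPlus and purified on Ni–NTA. A custom Agilent array, made double-stranded by primer extension with Cy5-dUTP and blocked with 2% BSA, was incubated with 200 nM protein in PBS, 2% BSA, salmon testes DNA and 50 µM zinc acetate at 25 °C for 1 h and then washed.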

Row | Sequence | binding signal
1 | TAATTGAAAAGGTTGCTTATTGAACATTGTTGTTTTCACTCGGAGTCACCTAGTGCAG | 8130 fluorescence intensity (a.u.)
2 | CATGGATATCAGCAATAGTAACATTGGCGCCATTCCCAACCGGAGTCACCTAGTGCAG | 8920 fluorescence intensity (a.u.)
3 | AGGTTATAAGATGTTTTGACTATGGTTAAAGTCAAACTGCCGGAGTCACCTAGTGCAG | 9390 fluorescence intensity (a.u.)
4 | GTCACATTCAGTACTAGGTTGGTTTTTTTATGGGACGGATCGGAGTCACCTAGTGCAG | 8960 fluorescence intensity (a.u.)
5 | CGCTCAGTGGTCCCGTCGCATGCTACCATCTCCACTACCGCGGAGTCACCTAGTGCAG | 9740 fluorescence intensity (a.u.)
6 | GCCAATGACGATAAGAGCAAAGACGGACGGGAGGGGAGGGCGGAGTCACCTAGTGCAG | 10300 fluorescence intensity (a.u.)
7 | TACTACTTATATACTACTCACATTCGAATTTATCTTTTCTCGGAGTCACCTAGTGCAG | 9590 fluorescence intensity (a.u.)
8 | TAGTGTCAACCGAATATGACTGGGCTATCTGTTCGTTTCTCGGAGTCACCTAGTGCAG | 8090 fluorescence intensity (a.u.)
9 | ATCCTTCTTTCCTCTTGCTCCGTGTGCTAAGCATACCGACCGGAGTCACCTAGTGCAG | 9530 fluorescence intensity (a.u.)
10 | TCCCACCCGTTTTTATTTTTCTCGGTGGTTAACTTATCTTCGGAGTCACCTAGTGCAG | 8170 fluorescence intensity (a.u.)
11 | CTACTACTATCTCATTATGCTACGCTCGTTCCATCCTTTTCGGAGTCACCTAGTGCAG | 11700 fluorescence intensity (a.u.)
12 | GATAGTAGTAGTCCACCGTACATAATTATTCTCACACCATCGGAGTCACCTAGTGCAG | 8110 fluorescence intensity (a.u.)
13 | CAACATGATGGGATGGGAGTGATAGCTACGTACACTATTGCGGAGTCACCTAGTGCAG | 8060 fluorescence intensity (a.u.)
14 | CTGGGAGTTCACATATATGGGCAGGGGCGGGCCCACAATGCGGAGTCACCTAGTGCAG | 10400 fluorescence intensity (a.u.)
15 | TTTCCCATTGCTATGCTTTTGCGTAAGGTGATCACCTGATCGGAGTCACCTAGTGCAG | 9330 fluorescence intensity (a.u.)
16 | TGTGTTGCTCTCTCTTCACTTGGTTGGCGGCGGCGCTGCGCGGAGTCACCTAGTGCAG | 8060 fluorescence intensity (a.u.)
17 | GATTCGTCGTGTCCTTATTTTACTCCTGTAGACATCACCACGGAGTCACCTAGTGCAG | 12700 fluorescence intensity (a.u.)
18 | ATGTAGGTCCCATTTAGGTTTGTTTTTATTTTAGTGCCACCGGAGTCACCTAGTGCAG | 10400 fluorescence intensity (a.u.)
19 | AACTTAGTTGCTGATGGGGTGTGAGGTACCAAAATTTGTTCGGAGTCACCTAGTGCAG | 10100 fluorescence intensity (a.u.)
20 | GGTTTCTCTTATTGACGGTTACCATGGTAATTAGGCTTATCGGAGTCACCTAGTGCAG | 8280 fluorescence intensity (a.u.)
21 | GGGAGTATTGTCTTGTGTTCATTTGATTGTATATTGTACTCGGAGTCACCTAGTGCAG | 8430 fluorescence intensity (a.u.)

Two entries from above, as tab-separated lines:
Row	Sequence	binding signal
10	TCCCACCCGTTTTTATTTTTCTCGGTGGTTAACTTATCTTCGGAGTCACCTAGTGCAG	8170 fluorescence intensity (a.u.)
11	CTACTACTATCTCATTATGCTACGCTCGTTCCATCCTTTTCGGAGTCACCTAGTGCAG	11700 fluorescence intensity (a.u.)

Following part.

Row | Sequence | binding signal
22 | CCTACGCCACTTCCCACTGAAGCCACTTCACCCTCAATTACGGAGTCACCTAGTGCAG | 8430 fluorescence intensity (a.u.)
23 | GAAAGCTGGGGAAGGAGTTGGGCTTGCTGGGGTGCGTCAACGGAGTCACCTAGTGCAG | 8290 fluorescence intensity (a.u.)
24 | TGCAGCTGCAGGCCAGCAGCCGTCACTCGATATCATATTCCGGAGTCACCTAGTGCAG | 10400 fluorescence intensity (a.u.)
25 | TCAACAGATGTATAATTTTCCTCCTCGCTTCATTTTCTTTCGGAGTCACCTAGTGCAG | 8080 fluorescence intensity (a.u.)
26 | AAGCCTGCCTCACTCCACCAGCATGATGAAACATCACCTACGGAGTCACCTAGTGCAG | 8490 fluorescence intensity (a.u.)
27 | CGCTCACCGCCGCCGCTTCCCCGCCCACCCGCCTTAGCATCGGAGTCACCTAGTGCAG | 8420 fluorescence intensity (a.u.)
28 | TGGTGGTGTGTTTTGTCAGTCAAAGTAGGCGCCCATACAACGGAGTCACCTAGTGCAG | 10400 fluorescence intensity (a.u.)
29 | GAGTGGGGAGGAGGAGGCGGCGGCGGCGAGGTGTGCGCGGCGGAGTCACCTAGTGCAG | 9470 fluorescence intensity (a.u.)
30 | GCGCGGCGGAGGCGGTGGGGCAGAGGGTGTTCCACTTCGGCGGAGTCACCTAGTGCAG | 8380 fluorescence intensity (a.u.)
31 | GTTTATATATATGTCTTGATCGATCCTCGTTCTTGATCCGCGGAGTCACCTAGTGCAG | 9800 fluorescence intensity (a.u.)
32 | TTGCGCTGAACTAATCACAGCCGTTGACTTGGATTTGTTCCGGAGTCACCTAGTGCAG | 8360 fluorescence intensity (a.u.)
33 | GCCGGCCACCACCACCACTCTCTACTCCGGCGACATCATGCGGAGTCACCTAGTGCAG | 8200 fluorescence intensity (a.u.)
34 | CAACCTCGCCATCTTTCCCTGACATGTCGCTCACCGCTATCGGAGTCACCTAGTGCAG | 8070 fluorescence intensity (a.u.)
35 | CATGTCATTTTTTGTTCTAGGTGACAACTTATTTAATACTCGGAGTCACCTAGTGCAG | 9110 fluorescence intensity (a.u.)
36 | GAGGATGTGTTCTACCTATTTCTGTGGGTTGAGGGAGGTGCGGAGTCACCTAGTGCAG | 10400 fluorescence intensity (a.u.)
37 | GATTTGGGAGGGGTCGTTACCGGTGGGGTCCCGGATGCGACGGAGTCACCTAGTGCAG | 12200 fluorescence intensity (a.u.)
38 | CCCACCACCACCGCGGTCTCCACTGCGCCACGCTGCTGCCCGGAGTCACCTAGTGCAG | 10800 fluorescence intensity (a.u.)
39 | TGTCATGTCCATAAACCACATAGGCACAGGCCCAACCAAACGGAGTCACCTAGTGCAG | 8540 fluorescence intensity (a.u.)
40 | CCATGTGTCCCTGATTTCAAATTTGCTCACACGCACAGCCCGGAGTCACCTAGTGCAG | 10700 fluorescence intensity (a.u.)
41 | CCCCTTCTCTCTTTGTAATTACCTTTTTTTCGGTGAGCTTCGGAGTCACCTAGTGCAG | 9540 fluorescence intensity (a.u.)
42 | AGCTGACACATATCGTAACCATATCTCATACTATCTCTCTCGGAGTCACCTAGTGCAG | 11600 fluorescence intensity (a.u.)
